Experimental data published in the supplement of paper PMC10849652.
Some of the results follow.

Sequences of proteins named here, by UniProt entry; tags and fusion partners are left off. A change or cut given only in a name is not applied to a line headed by its entry.
UniProt Q8NF37: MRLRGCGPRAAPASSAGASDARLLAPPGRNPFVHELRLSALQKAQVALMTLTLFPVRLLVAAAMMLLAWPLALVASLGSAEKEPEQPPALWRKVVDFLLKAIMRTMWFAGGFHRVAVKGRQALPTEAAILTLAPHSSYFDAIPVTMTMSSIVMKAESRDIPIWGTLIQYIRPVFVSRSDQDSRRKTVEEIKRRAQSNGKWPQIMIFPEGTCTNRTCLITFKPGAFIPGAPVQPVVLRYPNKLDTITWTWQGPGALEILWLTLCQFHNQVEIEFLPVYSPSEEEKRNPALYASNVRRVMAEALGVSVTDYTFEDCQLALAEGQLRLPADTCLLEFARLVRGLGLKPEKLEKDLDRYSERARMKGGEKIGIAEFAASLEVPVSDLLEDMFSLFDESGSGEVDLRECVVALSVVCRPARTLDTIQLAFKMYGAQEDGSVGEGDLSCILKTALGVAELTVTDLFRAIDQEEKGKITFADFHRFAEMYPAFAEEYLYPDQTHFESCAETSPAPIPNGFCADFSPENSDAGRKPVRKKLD
UniProt Q96EK9: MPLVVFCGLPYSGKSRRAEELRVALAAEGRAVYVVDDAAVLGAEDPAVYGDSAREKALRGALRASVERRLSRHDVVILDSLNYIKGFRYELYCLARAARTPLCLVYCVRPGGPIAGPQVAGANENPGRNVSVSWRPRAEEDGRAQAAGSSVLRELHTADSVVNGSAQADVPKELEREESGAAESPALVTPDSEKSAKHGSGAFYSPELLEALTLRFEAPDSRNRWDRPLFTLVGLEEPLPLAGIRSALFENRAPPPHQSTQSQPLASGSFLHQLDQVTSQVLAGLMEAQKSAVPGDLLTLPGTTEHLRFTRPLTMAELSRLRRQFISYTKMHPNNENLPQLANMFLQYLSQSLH
UniProt Q96AG4: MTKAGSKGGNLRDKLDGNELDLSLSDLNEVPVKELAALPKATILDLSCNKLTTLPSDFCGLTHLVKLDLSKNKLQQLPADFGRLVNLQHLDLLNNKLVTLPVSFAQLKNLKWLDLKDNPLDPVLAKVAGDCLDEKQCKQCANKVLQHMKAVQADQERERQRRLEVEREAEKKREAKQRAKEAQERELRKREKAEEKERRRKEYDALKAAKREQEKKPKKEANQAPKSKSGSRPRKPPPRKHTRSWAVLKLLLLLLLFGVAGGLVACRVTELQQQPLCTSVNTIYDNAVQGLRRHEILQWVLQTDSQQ
UniProt Q9Y2Q5, whole entry, looked up: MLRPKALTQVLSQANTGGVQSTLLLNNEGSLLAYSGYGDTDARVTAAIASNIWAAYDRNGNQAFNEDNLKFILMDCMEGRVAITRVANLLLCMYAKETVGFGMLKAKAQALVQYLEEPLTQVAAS
UniProt P83111: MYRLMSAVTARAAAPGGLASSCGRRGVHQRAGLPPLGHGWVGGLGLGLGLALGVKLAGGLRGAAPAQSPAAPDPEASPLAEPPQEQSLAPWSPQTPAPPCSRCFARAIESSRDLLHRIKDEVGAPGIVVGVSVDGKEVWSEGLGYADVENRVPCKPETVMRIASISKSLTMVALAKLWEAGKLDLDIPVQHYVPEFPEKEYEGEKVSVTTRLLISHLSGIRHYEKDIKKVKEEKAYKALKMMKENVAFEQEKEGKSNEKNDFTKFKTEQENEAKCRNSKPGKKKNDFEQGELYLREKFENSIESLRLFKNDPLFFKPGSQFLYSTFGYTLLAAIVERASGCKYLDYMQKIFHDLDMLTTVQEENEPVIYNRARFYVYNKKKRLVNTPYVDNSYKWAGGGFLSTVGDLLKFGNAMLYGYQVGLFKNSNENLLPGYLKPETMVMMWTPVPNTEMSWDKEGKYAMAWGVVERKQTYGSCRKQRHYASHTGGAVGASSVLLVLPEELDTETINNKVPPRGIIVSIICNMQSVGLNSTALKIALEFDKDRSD
UniProt Q8N9N7: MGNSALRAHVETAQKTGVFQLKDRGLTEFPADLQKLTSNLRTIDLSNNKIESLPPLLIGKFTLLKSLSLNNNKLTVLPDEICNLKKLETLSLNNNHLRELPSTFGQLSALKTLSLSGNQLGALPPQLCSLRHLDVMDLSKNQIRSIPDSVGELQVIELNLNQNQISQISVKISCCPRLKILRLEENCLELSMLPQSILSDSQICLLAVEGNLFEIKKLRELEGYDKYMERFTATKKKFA
UniProt P25791: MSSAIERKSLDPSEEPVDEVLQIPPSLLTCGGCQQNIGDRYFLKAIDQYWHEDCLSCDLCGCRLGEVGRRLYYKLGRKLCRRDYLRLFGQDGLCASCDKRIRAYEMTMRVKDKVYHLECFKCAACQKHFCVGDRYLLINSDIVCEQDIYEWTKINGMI
UniProt Q15345: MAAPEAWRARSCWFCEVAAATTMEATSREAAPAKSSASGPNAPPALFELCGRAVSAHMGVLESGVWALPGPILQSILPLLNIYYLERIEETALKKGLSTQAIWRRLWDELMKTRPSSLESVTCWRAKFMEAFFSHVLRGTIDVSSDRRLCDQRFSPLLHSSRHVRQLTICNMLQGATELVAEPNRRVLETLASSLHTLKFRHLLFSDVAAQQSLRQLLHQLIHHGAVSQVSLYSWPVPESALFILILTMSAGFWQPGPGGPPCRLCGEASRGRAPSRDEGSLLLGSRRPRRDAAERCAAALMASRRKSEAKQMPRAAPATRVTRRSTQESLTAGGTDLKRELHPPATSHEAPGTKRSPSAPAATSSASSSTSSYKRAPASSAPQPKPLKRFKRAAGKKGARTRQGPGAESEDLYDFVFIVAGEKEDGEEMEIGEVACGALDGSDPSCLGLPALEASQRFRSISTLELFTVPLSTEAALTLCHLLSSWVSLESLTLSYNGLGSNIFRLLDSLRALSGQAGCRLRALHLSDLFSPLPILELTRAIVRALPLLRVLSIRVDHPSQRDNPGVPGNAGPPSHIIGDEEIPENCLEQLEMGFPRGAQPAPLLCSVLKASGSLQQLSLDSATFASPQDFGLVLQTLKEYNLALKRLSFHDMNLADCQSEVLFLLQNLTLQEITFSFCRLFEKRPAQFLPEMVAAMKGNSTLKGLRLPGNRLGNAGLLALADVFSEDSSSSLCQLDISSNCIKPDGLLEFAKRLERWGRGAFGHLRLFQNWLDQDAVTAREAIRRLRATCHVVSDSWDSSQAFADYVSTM
UniProt Q12907: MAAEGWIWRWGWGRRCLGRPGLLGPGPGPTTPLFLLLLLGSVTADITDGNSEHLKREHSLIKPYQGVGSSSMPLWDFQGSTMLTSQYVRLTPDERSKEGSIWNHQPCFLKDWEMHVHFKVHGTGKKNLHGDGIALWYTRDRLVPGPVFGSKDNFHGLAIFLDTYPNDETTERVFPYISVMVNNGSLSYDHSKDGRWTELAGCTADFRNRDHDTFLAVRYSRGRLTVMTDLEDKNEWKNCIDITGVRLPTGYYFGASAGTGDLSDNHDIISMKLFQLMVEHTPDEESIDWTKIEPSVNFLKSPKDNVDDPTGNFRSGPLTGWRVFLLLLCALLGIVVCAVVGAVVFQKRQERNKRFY
UniProt Q6YP21: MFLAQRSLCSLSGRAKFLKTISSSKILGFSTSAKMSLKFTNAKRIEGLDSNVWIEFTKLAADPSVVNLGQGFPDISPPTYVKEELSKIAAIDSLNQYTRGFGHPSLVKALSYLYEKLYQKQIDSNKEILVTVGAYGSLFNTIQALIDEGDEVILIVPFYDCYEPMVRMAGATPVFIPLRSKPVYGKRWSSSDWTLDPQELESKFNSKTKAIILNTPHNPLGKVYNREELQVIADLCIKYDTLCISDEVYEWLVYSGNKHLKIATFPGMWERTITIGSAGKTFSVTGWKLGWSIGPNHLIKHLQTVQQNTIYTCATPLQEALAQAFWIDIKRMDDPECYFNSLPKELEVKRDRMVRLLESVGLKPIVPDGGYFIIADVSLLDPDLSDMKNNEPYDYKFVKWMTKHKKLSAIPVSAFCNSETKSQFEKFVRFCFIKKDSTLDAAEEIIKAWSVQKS
UniProt Q16773: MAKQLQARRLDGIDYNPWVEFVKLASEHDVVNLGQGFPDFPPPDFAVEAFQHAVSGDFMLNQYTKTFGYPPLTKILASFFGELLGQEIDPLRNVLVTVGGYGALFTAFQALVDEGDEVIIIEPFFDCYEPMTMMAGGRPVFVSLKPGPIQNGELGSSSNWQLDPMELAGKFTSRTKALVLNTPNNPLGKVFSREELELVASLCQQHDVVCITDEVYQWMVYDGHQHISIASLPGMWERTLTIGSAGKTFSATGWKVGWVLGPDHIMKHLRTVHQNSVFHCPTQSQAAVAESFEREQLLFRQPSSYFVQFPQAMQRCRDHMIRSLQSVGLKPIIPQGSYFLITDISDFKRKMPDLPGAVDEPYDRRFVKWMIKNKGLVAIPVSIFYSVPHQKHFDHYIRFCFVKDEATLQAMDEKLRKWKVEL
UniProt Q9NS86: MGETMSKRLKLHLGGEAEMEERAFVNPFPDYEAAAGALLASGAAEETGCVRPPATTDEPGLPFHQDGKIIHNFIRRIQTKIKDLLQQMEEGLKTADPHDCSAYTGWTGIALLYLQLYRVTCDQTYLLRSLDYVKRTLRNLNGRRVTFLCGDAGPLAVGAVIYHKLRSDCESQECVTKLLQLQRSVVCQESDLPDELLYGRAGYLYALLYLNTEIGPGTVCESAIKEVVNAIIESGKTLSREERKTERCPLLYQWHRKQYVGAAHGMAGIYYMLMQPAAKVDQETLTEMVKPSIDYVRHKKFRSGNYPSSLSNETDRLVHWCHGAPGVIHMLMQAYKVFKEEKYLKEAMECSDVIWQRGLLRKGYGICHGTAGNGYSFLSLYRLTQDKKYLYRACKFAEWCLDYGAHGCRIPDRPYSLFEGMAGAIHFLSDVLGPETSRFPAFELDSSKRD
UniProt O94898: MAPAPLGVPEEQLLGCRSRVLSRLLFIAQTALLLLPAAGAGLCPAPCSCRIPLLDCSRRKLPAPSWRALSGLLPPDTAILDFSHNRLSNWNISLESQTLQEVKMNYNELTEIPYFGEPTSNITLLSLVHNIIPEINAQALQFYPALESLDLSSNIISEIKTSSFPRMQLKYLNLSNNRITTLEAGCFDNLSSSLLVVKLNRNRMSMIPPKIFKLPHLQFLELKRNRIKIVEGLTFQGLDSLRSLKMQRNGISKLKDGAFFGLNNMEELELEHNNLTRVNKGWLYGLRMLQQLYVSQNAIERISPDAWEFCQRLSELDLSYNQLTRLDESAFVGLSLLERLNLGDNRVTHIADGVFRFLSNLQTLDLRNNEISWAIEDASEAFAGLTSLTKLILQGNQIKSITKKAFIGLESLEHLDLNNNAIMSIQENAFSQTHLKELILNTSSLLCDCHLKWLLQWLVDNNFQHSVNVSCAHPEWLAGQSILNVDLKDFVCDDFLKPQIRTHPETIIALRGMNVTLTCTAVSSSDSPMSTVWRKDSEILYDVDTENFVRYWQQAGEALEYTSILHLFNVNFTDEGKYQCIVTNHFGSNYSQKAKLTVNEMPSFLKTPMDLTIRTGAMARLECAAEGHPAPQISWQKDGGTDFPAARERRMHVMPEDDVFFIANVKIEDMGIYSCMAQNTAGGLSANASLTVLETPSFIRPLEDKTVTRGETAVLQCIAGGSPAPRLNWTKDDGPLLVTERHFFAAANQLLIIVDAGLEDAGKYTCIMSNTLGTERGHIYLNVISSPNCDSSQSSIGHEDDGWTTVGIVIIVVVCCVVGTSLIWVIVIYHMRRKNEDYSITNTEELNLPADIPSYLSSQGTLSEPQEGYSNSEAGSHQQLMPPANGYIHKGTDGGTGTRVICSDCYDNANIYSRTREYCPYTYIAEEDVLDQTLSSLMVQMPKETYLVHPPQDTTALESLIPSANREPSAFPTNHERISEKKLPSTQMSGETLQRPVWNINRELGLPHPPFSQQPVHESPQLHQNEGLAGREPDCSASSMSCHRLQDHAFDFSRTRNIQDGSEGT
UniProt P49257: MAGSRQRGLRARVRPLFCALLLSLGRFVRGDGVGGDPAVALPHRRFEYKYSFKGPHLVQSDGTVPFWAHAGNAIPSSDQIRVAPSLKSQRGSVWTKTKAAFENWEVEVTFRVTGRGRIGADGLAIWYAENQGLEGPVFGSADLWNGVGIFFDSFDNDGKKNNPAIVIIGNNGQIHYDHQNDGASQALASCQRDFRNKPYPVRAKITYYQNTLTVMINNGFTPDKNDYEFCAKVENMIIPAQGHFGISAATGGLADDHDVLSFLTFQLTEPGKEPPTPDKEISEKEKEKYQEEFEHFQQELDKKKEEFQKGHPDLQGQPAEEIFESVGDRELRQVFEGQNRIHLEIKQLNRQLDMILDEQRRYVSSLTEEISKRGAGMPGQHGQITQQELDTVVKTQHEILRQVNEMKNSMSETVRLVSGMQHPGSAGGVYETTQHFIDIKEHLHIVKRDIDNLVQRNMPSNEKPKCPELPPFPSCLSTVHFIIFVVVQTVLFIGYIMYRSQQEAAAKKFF
UniProt Q14847: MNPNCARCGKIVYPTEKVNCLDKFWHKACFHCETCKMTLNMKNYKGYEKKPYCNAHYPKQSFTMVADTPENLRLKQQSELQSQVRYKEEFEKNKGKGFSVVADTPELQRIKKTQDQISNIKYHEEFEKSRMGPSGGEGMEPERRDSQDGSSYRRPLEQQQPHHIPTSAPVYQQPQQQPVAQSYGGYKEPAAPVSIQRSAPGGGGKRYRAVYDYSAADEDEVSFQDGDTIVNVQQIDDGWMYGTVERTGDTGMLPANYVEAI

Key:
Assay in all cases: log2 fold change, soluble protein after heating vs DMSO (PISA); higher = thermal stabilisation; K562 cells, 10 uM, 30 min; active = over 0.2 and 3.5 SD of the protein, either way, in both replicates (recomputed)
[1] = compound: CS(=O)(=O)c1ccc(-c2cnc(N)c(C(=O)Nc3ccccc3)n2)cc1
In short: (§1)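 K562 cells at 2×10^6 cells/mL were treated with 10 μM compound for 30 min. Aliquots were heated for 3 min across 48°C-58°C, pooled, and extracted in PBS with 0.5% NP-40 at 4°C; soluble protein was the supernatant after 21,000xg for 90 min. Soluble protein was quantified by TMTpro 16plex LC-MS/MS with channel sums equalised, and reported as log2 fold change in thermal stability against DMSO controls, with values from duplicates.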

crizotinib = compound: C[C@@H](Oc1cc(-c2cnn(C3CCNCC3)c2)cnc1N)c1c(Cl)ccc(F)c1Cl [crizotinib]
In short: as §1

[2] = compound: C[C@@H]1COCCN1C2=NC(=NC(=C2)C3(CC3)S(=O)(=O)C)C4=C5C=CNC5=CC=C4
In short: as §1

[3] = compound: C[C@H](C1=CC=C(C=C1)C(=O)NC2=C3C=CNC3=NC=C2)N
In short: as §1

duvelisib = compound: C[C@H](Nc1ncnc2nc[nH]c12)c1cc2cccc(Cl)c2c(=O)n1-c1ccccc1 [duvelisib]
In short: as §1

gandotinib = compound: Cc1cc(Nc2cc(CN3CCOCC3)c3nc(C)c(Cc4ccc(Cl)cc4F)n3n2)n[nH]1 [gandotinib]
In short: as §1

tozasertib = compound: Cc1cc(Nc2cc(N3CCN(C)CC3)nc(Sc3ccc(NC(=O)C4CC4)cc3)n2)n[nH]1 [tozasertib]
In short: as §1

[4] = compound: Cc1cc(SCc2sc(-c3ccc(C(F)(F)F)cc3)nc2C)ccc1OCC(=O)O
In short: as §1

doramapimod = compound: Cc1ccc(-n2nc(C(C)(C)C)cc2NC(=O)Nc2ccc(OCCN3CCOCC3)c3ccccc23)cc1 [doramapimod]
In short: as §1

ispinesib = compound: Cc1ccc(C(=O)N(CCCN)[C@@H](c2nc3cc(Cl)ccc3c(=O)n2Cc2ccccc2)C(C)C)cc1 [ispinesib]
In short: as §1

Measured: log2 fold change

LPCAT1 (UniProt Q8NF37)
inactive: [1] 0.052 | crizotinib -0.058 | [2] 0.088 | [3] -0.035 | duvelisib 0.041 | gandotinib -0.199 | tozasertib -0.067 | [4] -0.023 | doramapimod -0.06 | ispinesib 0.077

LHPP (UniProt Q9H008)
inactive: [1] 0.108 | crizotinib -0.046 | [2] -0.038 | [3] -0.048 | duvelisib 0.086 | gandotinib 0 | tozasertib -0.052 | [4] 0.013 | doramapimod -0.022 | ispinesib -0.001

KTI12 (UniProt Q96EK9)
inactive: [1] 0.089 | crizotinib -0.16 | [2] 0.035 | [3] -0.042 | duvelisib -0.031 | gandotinib -0.079 | tozasertib -0.126 | [4] 0.033 | doramapimod 0.001 | ispinesib -0.084

LRRC59 (UniProt Q96AG4)
inactive: [1] -0.019 | crizotinib 0 | [2] -0.02 | [3] -0.014 | duvelisib 0.025 | gandotinib -0.008 | tozasertib -0.022 | [4] 0 | doramapimod -0.023 | ispinesib 0.045

LPCAT2 (UniProt Q7L5N7)
inactive: [1] 0.067 | crizotinib -0.022 | [2] 0.169 | [3] 0.139 | duvelisib 0.038 | gandotinib -0.028 | tozasertib 0.043 | [4] 0.034 | doramapimod 0.034 | ispinesib -0.141

LAMTOR2 (UniProt Q9Y2Q5)
inactive: [1] -0.112 | crizotinib -0.076 | [2] -0.144 | [3] 0.041 | duvelisib 0.01 | gandotinib 0.083 | tozasertib 0.019 | [4] 0.016 | doramapimod 0.069 | ispinesib -0.195

LRPAP1 (UniProt P30533)
inactive: [1] 0.005 | crizotinib 0.061 | [2] -0.014 | [3] 0.016 | duvelisib 0.013 | gandotinib -0.009 | tozasertib 0.012 | [4] -0.01 | doramapimod -0.002 | ispinesib 0.257

LAPTM4A (UniProt Q15012)
inactive: [1] -0.048

LRG1 (UniProt P02750)
inactive: [1] -0.337 | crizotinib -0.002 | [2] 0.308 | [3] 0.132 | duvelisib 0.28 | gandotinib 0.068 | tozasertib 0.407 | [4] -0.014 | doramapimod 0 | ispinesib 0.189

7 successive records already listed:
LHPP (UniProt Q9H008)
inactive: [1] 0.108 | crizotinib -0.046 | [2] -0.038 | [3] -0.048 | duvelisib 0.086 | gandotinib 0 | tozasertib -0.052 | [4] 0.013 | doramapimod -0.022 | ispinesib -0.001

KTI12 (UniProt Q96EK9)
inactive: [1] 0.089 | crizotinib -0.16 | [2] 0.035 | [3] -0.042 | duvelisib -0.031 | gandotinib -0.079 | tozasertib -0.126 | [4] 0.033 | doramapimod 0.001 | ispinesib -0.084

LRRC59 (UniProt Q96AG4)
inactive: [1] -0.019 | crizotinib 0 | [2] -0.02 | [3] -0.014 | duvelisib 0.025 | gandotinib -0.008 | tozasertib -0.022 | [4] 0 | doramapimod -0.023 | ispinesib 0.045

LPCAT2 (UniProt Q7L5N7)
inactive: [1] 0.067 | crizotinib -0.022 | [2] 0.169 | [3] 0.139 | duvelisib 0.038 | gandotinib -0.028 | tozasertib 0.043 | [4] 0.034 | doramapimod 0.034 | ispinesib -0.141

LAMTOR2 (UniProt Q9Y2Q5)
inactive: [1] -0.112 | crizotinib -0.076 | [2] -0.144 | [3] 0.041 | duvelisib 0.01 | gandotinib 0.083 | tozasertib 0.019 | [4] 0.016 | doramapimod 0.069 | ispinesib -0.195

LRPAP1 (UniProt P30533)
inactive: [1] 0.005 | crizotinib 0.061 | [2] -0.014 | [3] 0.016 | duvelisib 0.013 | gandotinib -0.009 | tozasertib 0.012 | [4] -0.01 | doramapimod -0.002 | ispinesib 0.257

LAPTM4A (UniProt Q15012)
inactive: [1] -0.048

(cont.)

LAMTOR5 (UniProt O43504)
inactive: [1] -0.111 | crizotinib -0.158 | [2] 0.226 | [3] 0.1 | duvelisib 0.149 | gandotinib -0.061 | tozasertib 0.142 | [4] -0.139 | doramapimod 0.13 | ispinesib 0.04

LACTB (UniProt P83111)
inactive: [1] -0.044 | crizotinib -0.021 | [2] -0.033 | [3] 0.216 | duvelisib -0.087 | gandotinib 0.036 | tozasertib -0.061 | [4] -0.065 | doramapimod 0.071 | ispinesib -0.236

LDB1 (UniProt Q86U70)
inactive: [1] -0.017 | crizotinib 0.033 | [2] -0.055 | [3] -0.017 | duvelisib 0.009 | gandotinib -0.002 | tozasertib -0.024 | [4] -0.038 | doramapimod 0.016 | ispinesib 0.04

LRRC4B (UniProt Q9NT99)
inactive: [1] 0.024 | crizotinib 0.065 | [2] -0.006 | [3] -0.085 | duvelisib -0.004 | gandotinib 0.006 | tozasertib -0.057 | [4] -0.119 | doramapimod -0.183 | ispinesib 0.179

LAGE3 (UniProt Q14657)
inactive: [1] 0.046 | crizotinib 0.088 | [2] 0.022 | [3] -0.03 | duvelisib 0.094 | gandotinib 0.046 | tozasertib -0.035 | [4] -0.052 | doramapimod 0.052 | ispinesib 0.08

LRRC57 (UniProt Q8N9N7)
inactive: [1] 0.047 | crizotinib -0.004 | [2] 0.066 | [3] -0.102 | duvelisib 0.028 | gandotinib -0.084 | tozasertib -0.052 | [4] 0.012 | doramapimod -0.015 | ispinesib 0.081

LRFN4 (UniProt Q6PJG9)
inactive: [1] 0.123 | crizotinib -0.023 | [2] 0.062 | [3] 0.067 | duvelisib 0.125 | gandotinib -0.149 | tozasertib -0.094 | [4] -0.145 | doramapimod 0.054 | ispinesib -0.05

LMO2 isoform 3 (UniProt P25791)
inactive: [1] -0.009 | crizotinib 0.015 | [2] -0.015 | [3] 0.028 | duvelisib 0.076 | gandotinib -0.161 | tozasertib 0.023 | [4] -0.011 | doramapimod -0.009 | ispinesib -0.01

LGALS1 (UniProt P09382)
inactive: [1] -0.044 | crizotinib 0.076 | [2] 0.084 | [3] -0.091 | duvelisib 0.022 | gandotinib -0.008 | tozasertib 0.038 | [4] -0.035 | doramapimod 0.002 | ispinesib 0.037

LARS (UniProt Q9P2J5)
inactive: [1] 0.016 | crizotinib -0.078 | [2] -0.201 | [3] 0.327 | duvelisib -0.116 | gandotinib 0.082 | tozasertib 0.055 | [4] 0.106 | doramapimod 0.2 | ispinesib -0.236

LRRC41 (UniProt Q15345)
inactive: [1] -0.156

LEPR (UniProt P48357)
inactive: [1] 0.028 | crizotinib 0.002 | [2] 0.003 | [3] -0.038 | duvelisib 0.059 | gandotinib 0.049 | tozasertib -0.019 | [4] -0.023 | doramapimod -0.002 | ispinesib 0.006

LONP1 (UniProt P36776)
inactive: [1] 0.027 | crizotinib 0.075 | [2] 0.035 | [3] -0.056 | duvelisib 0.021 | gandotinib -0.006 | tozasertib -0.016 | [4] -0.022 | doramapimod -0.028 | ispinesib 0.047

LMAN2 (UniProt Q12907)
inactive: [1] 0.04 | crizotinib 0.046 | [2] 0.087 | [3] -0.008 | duvelisib 0.011 | gandotinib 0.013 | tozasertib -0.01 | [4] 0.017 | doramapimod -0.007 | ispinesib -0.043

KYAT3 (UniProt Q6YP21)
inactive: [1] 0.012 | crizotinib 0.026 | [2] 0.01 | [3] -0.023 | duvelisib 0.004 | gandotinib 0.018 | tozasertib -0.019 | [4] -0.055 | doramapimod -0.016 | ispinesib -0.005

KYAT1 (UniProt Q16773)
inactive: [1] 0.014 | crizotinib -0.018 | [2] -0.013 | [3] 0.005 | duvelisib 0.047 | gandotinib -0.063 | tozasertib -0.035 | [4] -0.061 | doramapimod -0.008 | ispinesib -0.002

LANCL2 (UniProt Q9NS86)
inactive: [1] 0.007 | crizotinib 0.019 | [2] -0.018 | [3] -0.034 | duvelisib 0.008 | gandotinib 0.164 | tozasertib -0.02 | [4] -0.039 | doramapimod 0.005 | ispinesib 0.021

LRIG2 (UniProt O94898)
inactive: [1] -0.009 | crizotinib 0 | [2] -0.012 | [3] 0.023 | duvelisib 0.033 | gandotinib 0.01 | tozasertib 0.025 | [4] 0.11 | doramapimod -0.017 | ispinesib 0.052

LRRC47 (UniProt Q8N1G4)
inactive: [1] 0.012 | crizotinib -0.002 | [2] 0.047 | [3] -0.089 | duvelisib 0 | gandotinib -0.013 | tozasertib 0.03 | [4] 0.011 | doramapimod -0.008 | ispinesib 0.044

LMTK2 (UniProt Q8IWU2)
inactive: [1] 0.056 | crizotinib -0.076 | [2] -0.103 | [3] 0.292 | duvelisib -0.043 | gandotinib 0.249 | tozasertib 0.028 | [4] -0.099 | doramapimod 0.083 | ispinesib -0.043

LCP1 (UniProt P13796)
inactive: [1] 0.008 | crizotinib 0.03 | [2] 0.01 | [3] -0.047 | duvelisib -0.009 | gandotinib -0.009 | tozasertib -0.014 | [4] -0.053 | doramapimod -0.016 | ispinesib 0.04

LMAN1 (UniProt P49257)
inactive: [1] 0.042 | crizotinib -0.047 | [2] -0.039 | [3] 0.011 | duvelisib -0.01 | gandotinib 0.005 | tozasertib 0.002 | [4] -0.021 | doramapimod 0.025 | ispinesib -0.111

LASP1 (UniProt Q14847)
inactive: [1] -0.041 | crizotinib -0.004 | [2] -0.026 | [3] -0.08 | duvelisib 0 | gandotinib -0.017 | tozasertib -0.009 | [4] -0.078 | doramapimod -0.032 | ispinesib 0
